{"source": "patent US6068838A", "about": "“Purified multimerase” (Baxter Aktiengesellschaft, priority 1996, dated 2000)", "test_system": "vWF", "experiment": "pH optimum of vWF degradation by the activated protease", "assay_type": "biochemical, human", "data": [{"substance": "protease: von Willebrand factor cleaving protease purified from human plasma, named multimerase; converts singlet vWF to satellite structure", "values": [{"measurement": "pH of highest activity", "setting": "barium-activated protease (10 mM barium chloride)", "value": "~8", "unit": "pH"}, {"measurement": "pH optimum for vWF degradation", "setting": "calcium-activated protease (10 mM calcium chloride)", "value": "9 to 10", "unit": "pH"}]}]}
